PubChem BioAssay AID1439 (NMMLSC, 2008)
About 770 (0.35%) of roughly 220,000 compounds were called active. Inconclusive means that the source gave no clear call. Such entries were picked first, then a sample of the others. No stated cut-off is given here; in the data, active means binding response below about 49% or above about 150%; inconclusive means no clear call, values can overlap the other calls; inactive means in between.

Sequences of proteins named here, by UniProt entry; tags and fusion partners are left off.
UniProt P09471, whole entry, looked up: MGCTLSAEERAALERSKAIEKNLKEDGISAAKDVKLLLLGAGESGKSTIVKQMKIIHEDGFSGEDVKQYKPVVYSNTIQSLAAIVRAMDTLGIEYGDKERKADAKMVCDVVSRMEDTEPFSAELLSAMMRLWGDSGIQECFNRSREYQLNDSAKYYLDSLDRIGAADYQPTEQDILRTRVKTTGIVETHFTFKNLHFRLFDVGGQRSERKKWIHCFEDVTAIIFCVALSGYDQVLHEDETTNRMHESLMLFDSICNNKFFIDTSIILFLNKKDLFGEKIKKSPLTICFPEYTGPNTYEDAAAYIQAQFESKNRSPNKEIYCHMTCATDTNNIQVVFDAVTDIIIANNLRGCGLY

target: Guanine nucleotide-binding protein G(o) subunit alpha (Homo sapiens) (UniProt P09471); test: RGS7-Galphao binding modulators, primary screen, biochemical, multiplexed bead flow cytometry (AID 1439); settings: at 10 µM, actives lie on both sides;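 further: fluorescent Galphao held in activated GDP-AlF4 state binding bead-coupled RGS7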

Row | Compound | binding response (% of control)
1 | CCOc1ccc(S(=O)(=O)Nc2ccc(C(=O)NN)cc2)cc1 | inconclusive: 97.9%
2 | O=C(NC(=S)NC(c1ccccc1)c1ccncc1)c1ccccc1 (centres undefined) | inactive: 98.1%
3 | NC(=O)CC(NC(=O)c1ccc(Br)cc1)c1ccc(NCc2ccc(F)cc2)c([N+](=O)[O-])c1 (centres undefined) | inconclusive: 91.5%
4 | CCCn1nnc(NC(=S)NC(=O)/C=C/c2ccco2)n1 | inconclusive: 100%
5 | COc1ccc(NC(=O)Cc2cccc(F)c2)cc1S(=O)(=O)Nc1ccccc1Cl | inconclusive: 124%
6 | COc1ccc(NC(=S)N2CCN(C(c3ccccc3)c3ccccc3)CC2)cc1OC | inactive: 107%
7 | Cc1ccc(-c2noc(-c3ccccc3C(=O)NCc3ccco3)n2)cc1 | inconclusive: 139%
8 | CC(C)(C)N1NC2(CCCCC2)NC1=S | inconclusive: 85.9%
9 | COc1ccc(N=C2SC(CC(=O)Nc3ccccc3)C(=O)N2Cc2ccccn2)cc1 (centres undefined) | inconclusive: 110%
10 | Cc1cccc(C)c1OCC(=O)N(Cc1ccc(N(C)C)cc1)C1CCS(=O)(=O)C1 (centres undefined) | inconclusive: 102%
11 | O=C(Cc1ccccc1)NNC(=S)NC(=O)c1cccs1 | inconclusive: 121%
12 | O=S(=O)(NCc1c(Cl)cccc1Oc1ccccc1)c1ccc(F)cc1 | inconclusive: 155%
13 | Cc1ccc2c(c1)C(c1ccccc1)C(=O)O2 (centres undefined) | inconclusive: 30.7%
14 | COC(=O)c1ccc(Oc2ccc3nnc(C)n3n2)cc1 | inactive: 116%
15 | Cc1cccc2sc(NC(=O)c3ccc(Cl)s3)nc12 | inactive: 101%
16 | O=C(O)COc1ccccc1/C=N/Nc1ccc(S(=O)(=O)Nc2ccc(Cl)cc2)cc1[N+](=O)[O-] | inconclusive: 98.8%
17 | COc1ccc(-n2ncc3c(=O)n(CC(=O)Nc4ccc(S(=O)(=O)N5CCOCC5)cc4)cnc32)cc1 | inactive: 96.7%
18 | CC(C)N(C(=O)COC(=O)[C@@H]1CC(O)CN1S(=O)(=O)c1ccc(C(C)(C)C)cc1)C(C)C (some centres undefined) | inconclusive: 102%
19 | CCN(CC)C(=O)CC(c1ccc2c(c1)OCO2)c1c(OC)cc(OC)c2c(-c3ccccc3)cc(=O)oc12 (centres undefined) | inconclusive: 98.3%
20 | O=[N+]([O-])c1cc(C(F)(F)F)cc([N+](=O)[O-])c1NCCNC(=S)Nc1cccc(F)c1 | inconclusive: 128%
21 | COc1ccc(CN2CCn3nc(C(=O)NC(C)C)cc3C2=O)cc1 | inactive: 104%
22 | Cc1ccc(CN2CCN(/N=C\C=C\c3ccccc3)CC2)cc1 | inactive: 99.8%
23 | CN(Cc1ccccc1)C(=O)COC(=O)c1cc(NS(=O)(=O)c2cccs2)ccc1O | inconclusive: 101%

Of the compounds above, 2 contain a tert-butyl group:
Row | Compound | binding response (% of control)
8 | CC(C)(C)N1NC2(CCCCC2)NC1=S | inconclusive: 85.9%
18 | CC(C)N(C(=O)COC(=O)[C@@H]1CC(O)CN1S(=O)(=O)c1ccc(C(C)(C)C)cc1)C(C)C (some centres undefined) | inconclusive: 102%

Four structures from above, ordered by heavy-atom count, smallest number first:
Row | Compound | binding response (% of control)
8 | CC(C)(C)N1NC2(CCCCC2)NC1=S | inconclusive: 85.9%
12 | O=S(=O)(NCc1c(Cl)cccc1Oc1ccccc1)c1ccc(F)cc1 | inconclusive: 155%
7 | Cc1ccc(-c2noc(-c3ccccc3C(=O)NCc3ccco3)n2)cc1 | inconclusive: 139%
18 | CC(C)N(C(=O)COC(=O)[C@@H]1CC(O)CN1S(=O)(=O)c1ccc(C(C)(C)C)cc1)C(C)C (some centres undefined) | inconclusive: 102%

(more compounds)

Row | Compound | binding response (% of control)
24 | CN1C(C(=O)NCc2ccc(OC(F)(F)F)cc2)CC2Cn3c(nc4cc(Cl)c(Cl)cc43)C21 (centres undefined) | inconclusive: 119%
25 | Cc1ccc(NCc2n[nH]c(=S)n2Cc2ccccc2)cc1Cl | active: 167% [activator]
26 | Cc1cc(NC(=O)CN2CCCCC2)n(-c2ccccc2)n1 | inconclusive: 104%
27 | CNC(=O)NNC(=O)c1csc(-c2ccc(C(F)(F)F)cc2Cl)n1 | inconclusive: 69.8%
28 | O=C(NCc1ccccc1)c1ccc(=O)oc1 | inconclusive: 120%
29 | Cc1ccc(C(=O)NNC(=O)Cc2csc(-c3csc(C)n3)n2)cc1 | inconclusive: 77.7%
30 | Cc1ccc(S(=O)(=O)n2[nH]c(=O)cc2N)cc1 | inactive: 103%
31 | CCNC(=O)COC(=O)c1sccc1C | inconclusive: 96.3%
32 | CN(CCN1CCc2ccccc2C1)Cc1nc(Cc2ccccc2F)no1 | active: 17.1%
33 | O=C(Nc1ccc(Oc2ccc(NC(=O)Nc3ccccc3Cl)cc2)cc1)Nc1ccccc1Cl | inconclusive: 82%
34 | CCOC(=O)c1sc2cc([N+](=O)[O-])cc(SCCO)c2c1N | inactive: 99.9%
35 | Cc1ccc(NC(=O)CCN2C(=O)OC(C)(C)C2(C)O)cc1 (centres undefined) | inactive: 98.8%
36 | Cc1cc(=O)[nH]c(SCC(=O)NCC2CCCCC2)c1C#N | inconclusive: 82.2%
37 | CN=C1c2cc3c(Br)c(OC)ccc3n2CCN1C | inactive: 128%
38 | CCN1CCN(CCCN(Cc2ccco2)C(=S)Nc2ccc(C)c(Cl)c2)CC1 | inconclusive: 110%
39 | CCCN(CCC)S(=O)(=O)c1nc2nc(C)cc(C)n2n1 | inconclusive: 81.5%
40 | O=C(N/N=C/c1ccc(-c2ccc(S(=O)(=O)Nc3ncccn3)cc2)o1)c1cc2ccccc2cc1O | inactive: 102%
41 | N#C/C(=N\Nc1ccccc1)C(N)=S | inconclusive: 86.8%
42 | Nc1nc(CCl)nc(N(c2ccccc2)c2ccccc2)n1 | inconclusive: 63.6%
43 | CN(CC(=O)Nc1ccc(Cl)c(Cl)c1)Cc1nnc(-c2ccc(F)cc2)o1 | inactive: 97.4%
44 | Cc1cc(NC(=O)C2CC(c3c(F)cccc3Cl)=NO2)n(-c2ccccc2)n1 (centres undefined) | inconclusive: 92.4%
45 | CC(C)CCN1C(=O)CC(NNC(=O)c2ccc(S(=O)(=O)N3CCCC3)cc2)C1=O (centres undefined) | inconclusive: 112%
46 | C/C(CC(=O)Nc1cccnc1)=N\NC(=O)C(C)Oc1ccc(Cl)cc1Cl (centres undefined) | inconclusive: 15.3%

Row | Compound | binding response (% of control)
47 | Cn1nc(C(C)(C)C)c(NC(=O)c2ccc(F)cc2)c1C(C)(C)C | inconclusive: 46.3%
48 | CCc1nc(C)ccc1OC(=O)C12CC3CC(CC(C3)C1)C2 | inactive: 100%
49 | Cc1cc(/C=C2/C(=N)N3C(=NC2=O)SN=C3S(C)(=O)=O)c(C)n1-c1ccccc1 | inconclusive: 75%
50 | CSC(=S)N/N=C(\C)c1ccccc1 | inactive: 109%
51 | C/C(=N\NC(=S)NC1CCCCC1)c1ccc(C)o1 | inconclusive: 84.4%
52 | Cc1cc(C)cc(NC(=O)Nc2cc(S(=O)(=O)N(C)C)ccc2C)c1 | inconclusive: 123%
53 | CC(C)Oc1ccc(/C=N/NC(N)=S)cc1 | inactive: 110%
54 | Fc1ccc(-c2c[nH]c(=S)n2Cc2ccccc2)cc1 | inconclusive: 95.6%
55 | Cc1ccc(NC2=C(NCCO)C(=O)c3ccccc3C2=O)cc1 | inactive: 116%
56 | CC1CN(c2ccc(NC(=O)c3ccco3)cc2C(=O)O)CC(C)O1 (centres undefined) | inconclusive: 122%
57 | Cc1ccc(C(=O)N/N=C/c2cn(Cc3ccccc3)c3ccccc23)cn1 | inconclusive: 96.5%
58 | COc1ccc(-c2cc3ccccc3s2)cc1[C@H]1[C@H]2C=CC[C@@H](C)[C@@H]2C(=O)N1Cc1ccccc1 | inconclusive: 91.5%
59 | COc1ccc(/C=N/NC(=O)c2cc(C3CC3)[nH]n2)cc1OC | inconclusive: 247%
60 | NC(=O)c1cc(Cc2ccccc2)sc1NC(=O)c1ccco1 | inactive: 111%
61 | Cc1ccccc1NC(=O)c1snc2c(=O)[nH]cnc12 | inconclusive: 96.5%
62 | COc1ccccc1-n1cc(C(=O)NCC(=O)N2CCN(c3ccccn3)CC2)c2ccccc2c1=O | inconclusive: 96.2%
63 | COc1ccc(-c2nc(/C=C3\C(C)=Nc4ccccc43)c(O)o2)cc1 | inconclusive: 108%
64 | Cc1cccc(NC(=O)Nc2ccccn2)c1C | inconclusive: 140%
65 | COc1cc([N+](=O)[O-])ccc1NC(=O)Oc1ccc(NC(C)=O)cc1 | inconclusive: 91.7%
66 | COc1ccc(/C=C2/SC(=O)N(CCC(=O)Nc3ccc(S(=O)(=O)Nc4nccs4)cc3)C2=O)cc1 | inactive: 98.2%
67 | CN(Cc1cnccn1)C(=O)CC1C(=O)NCCN1Cc1c(F)cccc1Cl (centres undefined) | inconclusive: 90.8%
68 | CCN(c1ccccc1)S(=O)(=O)c1cccc(C(=O)NCC(c2cccs2)N(C)C)c1 (centres undefined) | inactive: 97.6%
69 | O=C(COC(=O)c1ccc2c(=O)n3c(nc2c1)CCC3)Nc1ccc(OC(F)F)cc1 | inactive: 102%

Row | Compound | binding response (% of control)
70 | O=C(O)c1ccc(/C=N/Nc2nc3ccccc3[nH]2)cc1 | inconclusive: 86.6%
71 | CC(C)(C)c1ccc(-c2noc(C(=O)NN)n2)cc1 | inconclusive: 17.6%
72 | O=C(NC1CCCCC1)C(c1cc2c(cc1[N+](=O)[O-])OCO2)N1CCCCC1 (centres undefined) | inactive: 101%
73 | COc1cc2c(c(OC)c1OC)-c1c(cc(OC)c(OC)c1OC)C[C@H](C)[C@H](C)C2 | inconclusive: 77.7%
74 | CCCN=C1NC(=O)C(CC(=O)NCCc2ccccc2)S1 (centres undefined) | inconclusive: 190%
75 | Nc1nc(-c2ccc(F)cc2)cc(C(F)(F)F)n1 | inactive: 99.3%
76 | CCCCC(C(=O)O)C(C)CC(=O)Nc1nccs1 (centres undefined) | inconclusive: 108%
77 | CC1CCC(C(C)C)C(=O)/C1=C/c1ccc(N)cc1 (centres undefined) | inconclusive: 125%
78 | COc1ccc(-c2nc(=S)[nH][nH]2)cc1OC | inconclusive: 86.2%
79 | O=C(CNC(=O)c1cnccc1C(F)(F)F)c1cccc(Cl)c1 | inconclusive: 134%
80 | CCOC(=O)/C=C1\SCC(=O)N1Cc1nnc(-c2ccccc2Br)o1 | inactive: 101%
81 | CCCc1cc(=O)[nH]c(SCC(=O)Nc2ccc(OC(F)F)cc2)n1 | inactive: 103%
82 | O=C(COC(=O)CNC(=O)C1CCCCC1)Nc1ccc(Cl)cc1F | inconclusive: 101%
83 | COc1ccc(-c2ccc(SCC(=O)c3cccs3)nn2)cc1 | inconclusive: 109%
84 | O=C(CSc1nn(-c2ccc(F)cc2)c(=S)s1)NC(=O)NCc1ccco1 | inactive: 87.8%
85 | CNC(=O)COC(=O)c1ccccc1C(=O)c1ccc(Cl)c([N+](=O)[O-])c1 | inconclusive: 91.1%
86 | Cc1cc(C)c(S(=O)(=O)c2ccccc2C)c(OCCO)n1 | inconclusive: 103%
87 | CC(C)NC(=O)COc1ccc(S(=O)(=O)N(C)Cc2ccccc2)cc1 | inconclusive: 137%
88 | Cc1occc1C(=O)Nc1cccc([N+](=O)[O-])c1C | inconclusive: 136%
89 | Cc1cccc(OCC(=O)N=Nc2c(O)[nH]c3ccc([N+](=O)[O-])cc23)c1 | inconclusive: 118%
